Experimental data as given in publication PMC4042850.
These are yes or no findings as the source states them, for the method shown. Binding seen in cells or lysates may run through a third protein. Some results given as binding are weak or reduced against the parent protein; the word gives no strength.

Sequences of proteins named here, by UniProt entry; tags and fusion partners are left off. A line that says so, or that is headed by a name, gives the form on record, which may keep a tag or linker. Residues count along the entry.
GST-tagged titin A168-TK (residues 31854–32492) (Q8WZ42, residues 31854-32492): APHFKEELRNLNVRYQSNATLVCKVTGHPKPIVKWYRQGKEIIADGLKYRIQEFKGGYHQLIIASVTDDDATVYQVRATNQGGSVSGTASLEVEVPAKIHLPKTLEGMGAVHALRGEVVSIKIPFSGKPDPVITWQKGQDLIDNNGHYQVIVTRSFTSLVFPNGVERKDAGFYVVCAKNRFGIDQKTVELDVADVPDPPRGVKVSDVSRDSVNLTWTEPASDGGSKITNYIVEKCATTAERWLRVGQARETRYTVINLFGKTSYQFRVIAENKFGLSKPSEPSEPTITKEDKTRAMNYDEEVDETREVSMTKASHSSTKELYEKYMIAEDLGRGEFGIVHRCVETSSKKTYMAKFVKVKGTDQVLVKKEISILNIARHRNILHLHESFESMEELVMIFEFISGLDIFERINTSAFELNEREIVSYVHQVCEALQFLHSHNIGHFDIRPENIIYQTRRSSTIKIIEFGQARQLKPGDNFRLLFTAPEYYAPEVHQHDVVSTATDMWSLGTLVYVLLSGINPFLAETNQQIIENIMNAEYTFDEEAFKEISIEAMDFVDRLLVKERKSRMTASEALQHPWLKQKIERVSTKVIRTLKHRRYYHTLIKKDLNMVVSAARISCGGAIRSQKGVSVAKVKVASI
GST-tagged titin A168–170 (residues 31854–32155) (Q8WZ42, residues 31854-32155): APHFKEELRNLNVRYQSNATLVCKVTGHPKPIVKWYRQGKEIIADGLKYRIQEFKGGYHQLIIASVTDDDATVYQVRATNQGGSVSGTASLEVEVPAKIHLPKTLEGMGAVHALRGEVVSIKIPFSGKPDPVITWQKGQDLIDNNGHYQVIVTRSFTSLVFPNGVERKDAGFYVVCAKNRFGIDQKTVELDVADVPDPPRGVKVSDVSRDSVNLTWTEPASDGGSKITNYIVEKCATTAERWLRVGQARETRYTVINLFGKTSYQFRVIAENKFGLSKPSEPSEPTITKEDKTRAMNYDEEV
GST-tagged titin kinase (TK) (Q8WZ42, residues 32172-32492): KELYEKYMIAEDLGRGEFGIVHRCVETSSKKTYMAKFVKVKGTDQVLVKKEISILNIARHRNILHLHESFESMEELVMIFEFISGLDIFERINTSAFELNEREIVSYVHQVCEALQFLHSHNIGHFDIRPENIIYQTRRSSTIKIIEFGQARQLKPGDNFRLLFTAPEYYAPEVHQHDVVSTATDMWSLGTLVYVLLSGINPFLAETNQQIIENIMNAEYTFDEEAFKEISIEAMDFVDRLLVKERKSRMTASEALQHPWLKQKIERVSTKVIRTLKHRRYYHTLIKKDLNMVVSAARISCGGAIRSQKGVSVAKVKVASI
UniProt Q38HM4: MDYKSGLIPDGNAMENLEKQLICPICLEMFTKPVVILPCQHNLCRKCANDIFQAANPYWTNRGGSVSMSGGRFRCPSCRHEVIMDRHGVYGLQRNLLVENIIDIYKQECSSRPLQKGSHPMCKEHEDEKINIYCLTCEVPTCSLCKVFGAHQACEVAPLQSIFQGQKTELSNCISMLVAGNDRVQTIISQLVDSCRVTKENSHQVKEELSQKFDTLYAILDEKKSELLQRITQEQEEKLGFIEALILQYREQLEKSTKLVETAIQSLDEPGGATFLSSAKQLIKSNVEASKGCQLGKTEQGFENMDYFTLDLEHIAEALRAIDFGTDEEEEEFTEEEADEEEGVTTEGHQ

Tests used:
Assay in all cases: pull-down; 50 µg GST or GST-titin fragment immobilised on 30 µl Glutathione-Sepharose beads; 1 ml diluted mouse quadriceps extract, 16 h at 4°C, PBS, 0.1% NP40; Western blot with a MuRF1-specific antibody; only the target purified
[1] = biological target: GST-tagged titin A168-TK (residues 31854–32492) (human) (UniProt Q8WZ42)
[2] = biological target: GST-tagged titin kinase (TK) (human) (UniProt Q8WZ42)
[3] = biological target: GST-tagged titin A168–170 (residues 31854–32155) (human) (UniProt Q8WZ42)

binding [1]: binds
binding [2]: no binding (tested: 50 µg bait on beads)
binding [3]: binds
Substance: endogenous MuRF1 (mouse skeletal muscle) (from UniProt Q38HM4 1-350)
